Data reported in PMC7979882.
No constants are given. Whether binding was seen depends on the method and setting. Binding seen in cells or lysates may run through a third protein. Some results given as binding are weak or reduced against the parent protein; the word gives no strength.

Sequences of proteins named here, by UniProt entry; tags and fusion partners are left off.
UniProt P37231: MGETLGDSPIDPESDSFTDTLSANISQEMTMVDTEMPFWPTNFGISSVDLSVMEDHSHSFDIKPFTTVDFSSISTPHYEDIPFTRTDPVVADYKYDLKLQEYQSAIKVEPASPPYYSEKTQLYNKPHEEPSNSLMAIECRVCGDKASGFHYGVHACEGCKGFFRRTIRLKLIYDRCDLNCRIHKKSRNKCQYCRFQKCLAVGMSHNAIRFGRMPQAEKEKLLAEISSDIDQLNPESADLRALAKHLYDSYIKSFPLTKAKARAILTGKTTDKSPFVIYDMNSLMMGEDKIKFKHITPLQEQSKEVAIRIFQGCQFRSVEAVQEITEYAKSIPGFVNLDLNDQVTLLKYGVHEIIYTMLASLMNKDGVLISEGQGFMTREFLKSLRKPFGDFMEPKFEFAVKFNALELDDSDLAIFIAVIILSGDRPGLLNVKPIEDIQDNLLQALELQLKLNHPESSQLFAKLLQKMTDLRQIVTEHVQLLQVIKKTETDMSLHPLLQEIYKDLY

Columns and labels:
hHNRNPK-Flag (human) [1] = molecular target: hHNRNPK-Flag (human) (UniProt P61978); assay: co-IP; Supplementary Fig. S4A; the sentence does not name the method (co-IP is the only protein-protein method in the methods); which protein was the bait is not told
hHSP90AA1-Flag (human) = hHSP90AA1-Flag (human) (UniProt P07900); assay: co-IP; 293 cells transfected with the Flag plasmid for 72 h; lysis in 20 mM Tris pH 7.5, 150 mM NaCl, 1% Triton X-100; precleared with protein A/G-agarose; anti-FLAG M2 affinity gel overnight, then protein A/G-agarose at 4 °C for 4 h; western blot
hPPARγ-Flag (human) = hPPARγ-Flag (human) (UniProt P37231); assay: as above
hHNRNPK-Flag (human) [2] = molecular target: hHNRNPK-Flag (human) (UniProt P61978); assay: as above

## hHSP90AA1-Flag (from UniProt P07900-2 1-854)
hHNRNPK-Flag (human) [1]
  binding: no binding

B1: human period circadian regulator 3 (hPER3) (protein, UniProt P56645 1-1201)
chain: MPRGEAPGPGRRGAKDEALGEESGERWSPEFHLQRKLADSSHSEQQDRNRVSEELIMVVQEMKKYFPSERRNKPSTLDALNYALRCVHSVQANSEFFQILSQNGAPQADVSMYSLEELATIASEHTSKNTDTFVAVFSFLSGRLVHISEQAALILNRKKDVLASSHFVDLLAPQDMRVFYAHTARAQLPFWNNWTQRAARYECAPVKPFFCRIRGGEDRKQEKCHSPFRIIPYLIHVHHPAQPELESEPCCLTVVEKIHSGYEAPRIPVNKRIFTTTHTPGCVFLEVDEKAVPLLGYLPQDLIGTSILSYLHPEDRSLMVAIHQKVLKYAGHPPFEHSPIRFCTQNGDYIILDSSWSSFVNPWSRKISFIIGRHKVRTSPLNEDVFATKIKKMNDNDKDITELQEQIYKLLLQPVHVSVSSGYGSLGSSGSQEQLVSIASSSEASGHRVEETKAEQMTLQQVYASVNKIKNLGQQLYIESMTKSSFKPVTGTRTEPNGGGECKTFTSFHQTLKNNSVYTEPCEDLRNDEHSPSYQQINCIDSVIRYLKSYNIPALKRKCISCTNTTSSSSEEDKQNHKADDVQALQAGLQIPAIPKSEMPTNGRSIDTGGGAPQILSTAMLSLGSGISQCGYSSTIVHVPPPETARDATLFCEPWTLNMQPAPLTSEEFKHVGLTAAVLSAHTQKEEQNYVDKFREKILSSPYSSYLQQESRSKAKYSYFQGDSTSKQTRSAGCRKGKHKRKKLPEPPDSSSSNTGSGPRRGAHQNAQPCCPSAASSPHTSSPTFPPAAMVPSQAPYLVPAFPLPAATSPGREYAAPGTAPEGLHGLPLSEGLQPYPAFPFPYLDTFMTVFLPDPPVCPLLSPSFLPCPFLGATASSAISPSMSSAMSPTLDPPPSVTSQRREEEKWEAQSEGHPFITSRSSSPLQLNLLQEEMPRPSESPDQMRRNTCPQTEYCVTGNNGSESSPATTGALSTGSPPRENPSHPTASALSTGSPPMKNPSHPTASALSTGSPPMKNPSHPTASTLSMGLPPSRTPSHPTATVLSTGSPPSESPSRTGSAASGSSDSSIYLTSSVYSSKISQNGQQSQDVQKKETFPNVAEEPIWRMIRQTPERILMTYQVPERVKEVVLKEDLEKLESMRQQQPQFSHGQKEELAKVYNWIQSQTVTQEIDIQACVTCENEDSADGAATSCGQVLVEDSC
hHSP90AA1-Flag (human)
  binding: binds
hPPARγ-Flag (human)
  binding: no binding
hHNRNPK-Flag (human) [2]
  binding: no binding
